Data reported in PubChem BioAssay AID2685 (National Center for Advancing Translational Sciences (NCATS), 2010).
The other results are listed elsewhere or left out. Shown are side measurements of this screen, not its main read-out; they come without a call. The list favours compounds with an active or inconclusive main result. The note in brackets gives the kind of curve behind each potency; many fits are weak.

Assay: qHTS Assay for Lipid Storage Modulators in Drosophila S3 Cells;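 for cell number change: cells counted by Cell Tracker Red CMTPX staining in the red channel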
Conditions: BODIPY lipid droplet fluorescence, 18-24 h; for cell number change: measured here: cell count max response, cells fed with added oleic acid
In short: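 Laser-scanning cytometry quantifies lipid droplet accumulation (500–530 nm total intensity; droplet/cell object ratio) in oleic acid-fed (400 uM added) Drosophila S3 cells treated with a concentration series. 20 uM Triacsin C defined 100% inhibition.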

[1] = measured here: cell number channel AC50, cells fed with added oleic acid
[2] = measured here: lipid fluorescence (Fed channel) AC50, cells fed with added oleic acid

| SMILES | cell number change | AC50 [1] | AC50 [2] |
| --- | --- | --- | --- |
| Cc1sc2ncnc(SCC(=O)NCC3CCCO3)c2c1C (centres undefined) | 31.3% | 0.00146 µM [rising, full curve, poor fit] | 1.84 µM [rising, partial curve] |
| Cc1cc(C(=O)NNC(=O)/C=C/c2ccco2)c(C)o1 | 3.61% | – | – |
| COc1ccc(NCc2nnc(SCC#N)n2-c2ccccc2OC)cc1 | 18.4% | 0.146 µM [rising, full curve, poor fit] | – |
| CCCc1cc(C(=O)Nc2cc(Cl)ccc2O)no1 | 14.6% | – | 1.03 µM [falling, full curve, poor fit] |
| CCOC(=O)c1sc(/N=C/c2c(C)[nH]n(-c3ccccc3)c2=O)c(C#N)c1C | – | – | 6.51 µM [rising, single point] |
| Clc1ccc2nc(CSc3nncn3-c3ccccc3)cn2c1 | -0.557% | – | 9.2 µM [rising, partial curve] |
| CC(=O)N1CCOc2ccc(S(=O)(=O)N(C)c3ccc(C)cc3)cc21 | -27.2% | – | – |
| COc1cc(Cl)c(C)cc1NC(=O)CNC(C)c1ccccc1OC (centres undefined) | 25.3% | 0.164 µM [rising, full curve, poor fit] | 7.31 µM [rising, partial curve, poor fit] |
| CCN1C(=O)c2cccc3c(S(=O)(=O)N4CCCC4C(=O)O)ccc1c23 (centres undefined) | 1.28% | – | 0.116 µM [rising, single point] |
| CCOC(=O)c1c(CN2CCOCC2)n(-c2ccccc2)c2cc(Br)c(O)c(CN(C)C)c12 | -9.66% | – | – |
| COc1cc(OC)cc(C(=O)N2CCN(Cc3cccc(F)c3)CC2)c1 | 39.1% | 4.11 µM [rising, single point] | – |
| Cc1onc(-c2c(F)cccc2Cl)c1C(N)=S | -14.9% | 0.164 µM [falling, full curve, poor fit] | 0.116 µM [falling, full curve, poor fit] |
| COc1ccc(CCn2c(NCCCN3CCOCC3)nc3c2c(=O)[nH]c(=O)n3C)cc1 | -0.952% | 0.731 µM [falling, single point] | 0.651 µM [falling, single point] |
| CCN(CC)C(=O)C1CCN(Cc2ccc(OCc3ccccc3)c(OC)c2)CC1 | – | – | 6.51 µM [rising, single point] |
| COC(=O)C(C)n1cnc2c(nnn2-c2cccc(Cl)c2)c1=O (centres undefined) | 51.2% | 1.84 µM [rising, full curve] | 2.59 µM [rising, full curve] |
| CC(=O)NC1=NN(C(C)=O)C2(S1)C(=O)N(C(C)C)c1ccc(C)cc12 (centres undefined) | 79.8% | 25.9 µM [rising, single point] | 29.1 µM [rising, single point] |
| CCOc1c2ccc(C(=O)NCC34CC5CC(CC(C5)C3)C4)cc2nn1CC | -10.8% | – | 7.31 µM [falling, partial curve] |
| CC(=O)c1ccc(NC(=O)Cn2c3ccccc3c3nc(=O)cc(C)n32)cc1 | 2.45% | 0.82 µM [falling, single point] | – |
| O=C1/C(=C/C=C/c2ccco2)SC(=S)N1c1ccc(O)cc1 | -25.8% | 2.06 µM [falling, full curve, poor fit] | 4.11 µM [falling, single point] |
| Cc1ccc(C(=O)NCC(=O)N2CCCC(C(F)(F)F)C2)s1 (centres undefined) | 11.5% | 0.0651 µM [rising, full curve, poor fit] | 29.1 µM [rising, single point] |

| SMILES | cell number change | AC50 [1] | AC50 [2] |
| --- | --- | --- | --- |
| COc1ccc(Cc2c(O)nc(SCC(=O)c3ccc(OC)cc3)[nH]c2=O)cc1 | 7.05% | – | – |
| Cc1c(C(=O)NC2CC2)oc2ccccc12 | -2.08% | – | 20.6 µM [rising, partial curve, poor fit] |
| Cc1nnc(NC(=O)C(C)Sc2nnc(-c3ccco3)n2C(C)C)s1 (centres undefined) | 26.1% | 0.00461 µM [rising, full curve, poor fit] | 1.64 µM [falling, full curve] |
| Cc1ccc(C(=O)NCC(=O)NCc2cc(=O)n(C)c(=O)n2C)cc1C | -9.44% | – | 0.58 µM [falling, single point] |
| Cc1ccc2c(c1)Oc1ccc([N+](=O)[O-])cc1C(=O)N2 | 1.93% | – | 0.231 µM [rising, full curve, poor fit] |
| O=C(CCC(=O)OCC(=O)c1ccc(Br)cc1)NC1CCCCC1 | 5.71% | – | – |
| COc1cc(C(=O)NNC(=O)c2ccco2)cc(OC)c1OC | 21.7% | – | 29.1 µM [rising, partial curve] |
| Cc1ccc(-n2nc(C)c(/C=N/NC(=O)c3cccs3)c2Cl)cc1 | -57.2% | 25.9 µM [falling, partial curve] | 3.26 µM [falling, partial curve] |
| O=C(Cc1cccc2ccccc12)NN1C(=O)/C(=C\c2cccnc2)SC1=S | -29.9% | – | 0.517 µM [falling, full curve] |
| c1ccc(-c2n[nH]c3c2CCC3)cc1 | -17.9% | – | 1.46 µM [falling, full curve] |
| NC(=O)c1nsc(C(=O)N(c2ccc(F)cc2)C(C(=O)NCC2CCCO2)c2ccc3ncccc3c2)c1N (centres undefined) | 16.5% | – | 1.46 µM [rising, full curve] |
| CN1C(=O)C(O)(CC(=O)/C=C/C=C/c2ccccc2)c2ccccc21 (centres undefined) | 6.31% | – | 0.92 µM [falling, full curve, poor fit] |
| COC(=O)c1nccnc1C(=O)Nc1ccccc1N1CCOCC1 | 3.41% | – | – |
| CCOC(=O)c1c(S(=O)(=O)N2CCCC(C(=O)Nc3cccc(C)n3)C2)c(C)n(C)c1C (centres undefined) | -22.4% | 2.06 µM [falling, partial curve, poor fit] | – |
| CCOC(CNc1c([N+](=O)[O-])c(=O)n(C)c(=O)n1C)OCC | 30.8% | 23.1 µM [rising, single point] | 0.184 µM [falling, full curve] |
| CC(=O)c1ccc(OCCCC(=O)N2CCN(S(=O)(=O)c3cc(C)ccc3C)CC2)cc1 | 17% | 0.651 µM [rising, partial curve] | 1.46 µM [rising, full curve] |
| Cc1ccc(OCC(=O)N/N=C/c2ccncc2)cc1C | -30.9% | 0.146 µM [falling, full curve] | 0.146 µM [falling, full curve] |
| Cc1c(C(=O)N(C)C)sc(NC(=O)c2cc([N+](=O)[O-])cc([N+](=O)[O-])c2)c1C#N | 7.64% | – | 29.1 µM [rising, single point] |
| Cc1[nH]c2ccccc2c1-c1nc2ccccc2[nH]c1=O | 18.5% | – | – |
| O=C1/C(=C/c2ccccc2[N+](=O)[O-])COc2ccccc21 | -60.2% | – | – |

| SMILES | cell number change | AC50 [1] | AC50 [2] |
| --- | --- | --- | --- |
| CC(Oc1ccc(Cl)cc1)C(=O)N1CCCc2ccccc21 (centres undefined) | 27.4% | – | 35.5 µM [rising, single point] |
| O=C(NCC(=O)N(Cc1ccco1)C(C(=O)NC1CCCCC1)c1cccnc1)c1cccs1 (centres undefined) | 66.5% | 5.17 µM [rising, partial curve] | 0.58 µM [rising, single point] |
| COC(=O)c1ccccc1NC(=O)Cn1c(-c2nonc2N)nc2ccccc21 | – | 1.3 µM [rising, partial curve] | – |
| COc1cc(C(=O)N/N=C(\C)c2ccccn2)cc(OC)c1OC | 1.08% | – | 0.116 µM [falling, full curve, poor fit] |
| CCCCNc1nc(Nc2ccc(C)c(Cl)c2)c2cnn(C)c2n1 | -65% | 23.1 µM [falling, partial curve] | 25.9 µM [falling, partial curve] |
| Nc1nc2c(nc(N3CCCCC3)n2[C@@H]2O[C@H](CO)[C@@H](O)[C@H]2O)c(=O)[nH]1 | 7.32% | – | – |
| O=C(CNC(=O)c1ccc(S(=O)(=O)N2CCCC2)cc1)N/N=C/c1ccccc1 | 14.7% | – | – |
| O=C(NCc1ccccn1)c1cc2ccccc2oc1=O | 114% | 20.6 µM [rising, single point] | 0.461 µM [rising, full curve, poor fit] |
| COc1ccc2nc(NC(=O)CNS(=O)(=O)c3cccs3)sc2c1 | 44.9% | 0.517 µM [rising, full curve] | – |
| O=C(CSc1nc(=O)n(CCCN2CCOCC2)c2c1CCC2)Nc1ccc([N+](=O)[O-])cc1 | -25% | 4.61 µM [falling, full curve, poor fit] | – |
| CC(NC(=O)c1ccccc1[N+](=O)[O-])C1CC2CCC1C2 (centres undefined) | -15.3% | – | 6.51 µM [rising, single point] |
| N#Cc1c(NC(=O)CCCN2C(=O)c3ccccc3C2=O)oc(-c2ccccc2)c1-c1ccccc1 | -14.8% | – | 18.4 µM [falling, single point] |
| OC(c1ccc(Cl)cc1Cl)C(Cc1cccnc1)n1cncn1 (centres undefined) | -0.339% | – | – |
| COc1ccc(C(=O)NCCS(=O)(=O)N2CCc3ccccc3C2)cc1OC | -5.83% | – | 4.11 µM [rising, partial curve, poor fit] |
| C/C(=N\NC(=O)C1CC1)c1ccc(OC(F)F)cc1 | -17.1% | – | 0.206 µM [rising, single point] |
| Cc1cc(C)nc(SSc2nc(C)cc(C)n2)n1 | -4.73% | – | 29.1 µM [falling, single point] |
| O=C(Nc1ccc(S(=O)(=O)NCc2ccco2)cc1)c1cccc(F)c1 | 52.8% | 23.1 µM [rising, single point] | – |
| COc1ccccc1NC(=O)Cn1cc(C(=O)C2CC2)c2ccccc21 | 20% | – | – |
| O=C(COC(=O)c1n[nH]c(=O)c2ccccc12)NCc1ccccc1 | 24.7% | – | 2.59 µM [falling, partial curve] |

An excerpt of these results, bar-delimited.
SMILES | cell number change | AC50 [1] | AC50 [2]
COc1ccc2nc(NC(=O)CNS(=O)(=O)c3cccs3)sc2c1 | 44.9% | 0.517 µM [rising, full curve] | –
O=C(CSc1nc(=O)n(CCCN2CCOCC2)c2c1CCC2)Nc1ccc([N+](=O)[O-])cc1 | -25% | 4.61 µM [falling, full curve, poor fit] | –
CC(NC(=O)c1ccccc1[N+](=O)[O-])C1CC2CCC1C2 (centres undefined) | -15.3% | – | 6.51 µM [rising, single point]
N#Cc1c(NC(=O)CCCN2C(=O)c3ccccc3C2=O)oc(-c2ccccc2)c1-c1ccccc1 | -14.8% | – | 18.4 µM [falling, single point]
OC(c1ccc(Cl)cc1Cl)C(Cc1cccnc1)n1cncn1 (centres undefined) | -0.339% | – | –
COc1ccc(C(=O)NCCS(=O)(=O)N2CCc3ccccc3C2)cc1OC | -5.83% | – | 4.11 µM [rising, partial curve, poor fit]
C/C(=N\NC(=O)C1CC1)c1ccc(OC(F)F)cc1 | -17.1% | – | 0.206 µM [rising, single point]
Cc1cc(C)nc(SSc2nc(C)cc(C)n2)n1 | -4.73% | – | 29.1 µM [falling, single point]
O=C(Nc1ccc(S(=O)(=O)NCc2ccco2)cc1)c1cccc(F)c1 | 52.8% | 23.1 µM [rising, single point] | –
COc1ccccc1NC(=O)Cn1cc(C(=O)C2CC2)c2ccccc21 | 20% | – | –
O=C(COC(=O)c1n[nH]c(=O)c2ccccc12)NCc1ccccc1 | 24.7% | – | 2.59 µM [falling, partial curve]
